This note sets out measurements from PMC5932034.

Sequences of proteins named here, by UniProt entry; tags and fusion partners are left off. Residues count along the entry.
UniProt P40729, residues 362-692: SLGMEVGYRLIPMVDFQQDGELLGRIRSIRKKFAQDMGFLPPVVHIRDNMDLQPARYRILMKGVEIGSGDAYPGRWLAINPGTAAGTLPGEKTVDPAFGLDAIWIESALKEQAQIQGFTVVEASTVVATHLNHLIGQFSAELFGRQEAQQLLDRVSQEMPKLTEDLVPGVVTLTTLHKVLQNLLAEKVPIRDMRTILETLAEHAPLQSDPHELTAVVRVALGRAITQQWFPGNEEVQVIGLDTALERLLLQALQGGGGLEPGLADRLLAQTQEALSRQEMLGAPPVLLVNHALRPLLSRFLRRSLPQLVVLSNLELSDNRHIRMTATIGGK

This test deals with cytoplasmic domain of Salmonella enterica serovar Typhimurium FlhA (FlhA^C) (Salmonella enterica serovar Typhimurium ST313) (UniProt P40729). Put plainly: NMR titration; unlabelled partner added to isotopically labelled FlhA^C (and unlabelled FlhA^C to labelled chaperone–substrate complex); 25 °C; 50 mM NaPi pH 6.8, 300 mM NaCl, 0.05% NaN3; typically 0.3 mM labelled protein; both purified.

No constants are given. Whether binding was seen depends on the method and setting.

B1: FliD (protein, UniProt P16328 1-467)
chain: MASISSLGVGSNLPLDQLLTDLTKNEKGRLTPITKQQSANSAKLTAYGTLKSALEKFQTANTALNKADLFKSTVASSTTEDLKVSTTAGAAAGTYKINVTQLAAAQSLATKTTFATTKEQLGDTSVTSRTIKIEQPGRKEPLEIKLDKGDTSMEAIRDAINDADSGIAASIVKVKENEFQLVLTANSGTDNTMKITVEGDTKLNDLLAYDSTTNTGNMQELVKAENAKLNVNGIDIERQSNTVTDAPQGITLTLTKKVTDATVTVTKDDTKAKEAIKSWVDAYNSLVDTFSSLTKYTAVEPGEEASDKNGALLGDSVVRTIQTGIRAQFANSGSNSAFKTMAEIGITQDGTSGKLKIDDDKLTKVLKDNTAAARELLVGDGKETGITTKIATEVKSYLADDGIIDNAQDNVNATLKSLTKQYLSVSNSIDETVARYKAQFTQLDTMMSKLNNTSSYLTQQFTAMNKS
As to B1, the binding entry is given as “no binding”.
